The values that follow come from PubChem BioAssay AID662 (National Center for Advancing Translational Sciences (NCATS), 2007).

Each structure is given as a SMILES string. Some of the results follow. These are further read-outs of the screen, such as a control signal, another cell line or another target. No call is given for them. Compounds called inactive in the main read-out are mostly missing here. Potencies come from curve fits of mixed quality, noted in brackets.

As usually defined, the AC50 is the midpoint of the concentration-response curve, whichever way the signal moves.

This experiment is described as follows: Cell signaling CRE-BLA (Fsk stim). As to conditions: CHO CRE-bla reporter (cAMP response element driving beta-lactamase), forskolin EC10, beta-lactamase ratio; measured here: 460 nm blue channel. Summed up:
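CRE-bla CHO reporter cells treated with compound titration plus EC10 NKH 477 (water-soluble forskolin), incubated 3 h at 37 °C; CCF4 loading 2 h at room temperature, 460/530 nm emission ratio read, AC50 values derived for positive or negative modulators.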
As for `CN1CCc2c(sc3c2C(=O)NC(c2cccs2)N3)C1` (stereo not drawn), the AC50 is 12.6 µM [rising, partial curve].

`CCOC(=O)c1cc2c(=O)n(C)c3ccccc3c2s1`: the half-maximal activity concentration (AC50) is 0.251 µM [falling, partial curve].

Turning to `O=C(Nc1ccc(Cl)cn1)Nc1cccs1`, the AC50 was 1 µM [falling, partial curve, poor fit].

For `O=C(NCc1ccc2c(c1)OCO2)c1cc(S(=O)(=O)N2CCCCC2)ccc1F`, the AC50 was 12.6 µM [falling, single point].

On to `CCOC(=O)c1[nH]c2ccccc2c1NC(=O)c1ccc(Br)o1`, for which the half-maximal activity concentration (AC50) is 3.16 µM [rising, partial curve].

Turning to `COc1ccccc1OC(C)C(=O)O` (stereo not drawn), the half-maximal activity concentration (AC50) was 0.01 µM [falling, full curve, poor fit].

On to `COc1cccc(-n2c(C)nc3c(cnn3-c3ccc(C)cc3)c2=O)c1`, for which the AC50 was 0.00316 µM [falling, full curve, poor fit].

Regarding `O=C1c2ccccc2-c2ccc(NC(=O)[C@H]3CCCC[C@@H]3C(=O)O)cc21`, the AC50 is 3.98 µM [rising, single point].

As for `COc1ccc(Cc2nnc(SCC(=O)NCc3ccco3)o2)cc1`, the half-maximal activity concentration (AC50) was 10 µM [falling, single point].

For the compound `O=C(Cn1cnc2c(nnn2Cc2ccc(F)cc2)c1=O)NC1CCCC1`, the concentration at half-maximal activity (AC50) is 0.316 µM [falling, full curve].

Turning to `N#Cc1cccc(-c2nccc(NCc3cccnc3)n2)c1`, the AC50 was 5.01 µM [rising, partial curve].

Take `Cc1ccc(/C=C/C2=Cc3c(sc(NC(=O)CSc4n[nH]c(N)n4)c3C#N)C(C)(C)C2)o1`: the concentration at half-maximal activity (AC50) was 6.31 µM [falling, partial curve].

With `COc1cc(Nc2nc(SCC#N)nc3ccccc23)cc(OC)c1OC`, the AC50 was 12.6 µM [rising, single point].

`O=C1C=CC2=C3c4cc(O)c(O)cc4C[C@@]3(O)COC2=C1O`: the half-maximal activity concentration (AC50) is 2.51 µM [rising, partial curve, poor fit].

Take `CN1CCc2c(sc3c2C(=O)NC(c2ccc(-c4cccc(Cl)c4)o2)N3)C1` (stereo not drawn): the AC50 is 2.51 µM [rising, partial curve].

As for `Cc1cc(Br)ccc1NC(=O)CNC(=O)CN1C(=O)NC2(CCCCCC2)C1=O`, the concentration at half-maximal activity (AC50) is 5.01 µM [falling, single point].

On to `c1ccc(-c2cc(-c3nc(-c4cccnc4)no3)c3ccccc3n2)cc1`, for which the AC50 is 3.16 µM [rising, single point].

As for `Nc1cccc2c1C(=O)N(C(=O)c1ccc(S(=O)(=O)N3CCCCCC3)cc1)C2=O`, the half-maximal activity concentration (AC50) is 12.6 µM [rising, single point].

Turning to `CCN(CCCNC(=O)C1CCN(S(=O)(=O)CC)CC1)c1cccc(C)c1`, the half-maximal activity concentration (AC50) was 0.631 µM [rising, full curve].

`CC(NC(=O)Nc1ccccc1O)(C(F)(F)F)C(F)(F)F`: the AC50 was 0.00316 µM [falling, full curve, poor fit].

`COc1ccc(-n2ncc3c(N4CCCc5ccccc54)ncnc32)cc1`: the concentration at half-maximal activity (AC50) was 2 µM [rising, full curve].

In the case of `CCOc1ccccc1NC(=O)c1ccc2nccnc2c1`, the AC50 is 15.8 µM [rising, partial curve, poor fit].

Take `COc1cc2c3c(c1)/C(=C1/SC(NC(C)=O)=NC1=O)C(=O)N3C(C)(C)C=C2C`: the AC50 is 12.6 µM [rising, partial curve].

`Cc1nn(Cc2ccccc2)c(Cl)c1C(=O)OC1CCOC1=O` (stereo not drawn): the AC50 is 5.01 µM [falling, partial curve].

`COC(=O)c1cc(OC)c(OC)cc1NC(=O)c1cnccn1`: the AC50 is 12.6 µM [rising, single point].

As for `CCOC(=O)C1CCN(C(=O)CNS(=O)(=O)c2ccc(Br)s2)CC1`, the concentration at half-maximal activity (AC50) is 0.251 µM [falling, partial curve].

In the case of `CC(=O)ON(C(C)=O)S(=O)(=O)c1ccc(Cl)cc1`, the AC50 was 31.6 µM [falling, single point].

Consider `CC(=O)c1ccc(NC(=O)C2CC(c3ccc(F)cc3)=NO2)cc1` (stereo not drawn), for which the AC50 is 1.26 µM [falling, partial curve].

For the compound `COc1cccc(Nc2ncc3nc(CCc4ccccc4)c(=O)n(Cc4cccs4)c3n2)c1`, the concentration at half-maximal activity (AC50) was 3.16 µM [rising, partial curve].

Consider `CC(CCc1ccco1)NC(=O)Nc1cccc(F)c1` (stereo not drawn), for which the AC50 was 15.8 µM [falling, single point].

As to `CCn1c(=O)n(CCOC)c(=O)c2c3c(sc21)CCCC3`, the AC50 was 25.1 µM [rising, single point].

For the compound `Nc1c(C(=O)NC2CCCCC2)c2nc3ccccc3nc2n1/N=C/c1ccco1`, the concentration at half-maximal activity (AC50) is 5.01 µM [rising, partial curve].

In the case of `O=C(c1ccc2c(c1)[nH]c(=S)n1c3ccccc3nc21)N1CCN(c2ncccn2)CC1`, the half-maximal activity concentration (AC50) is 5.01 µM [rising, partial curve].

Consider `O=C(CSC1=NCCS1)Nc1nc2c(s1)CCCC2`, for which the AC50 was 2 µM [falling, single point].

`CN1CCN(c2ncc3nc(-c4cccs4)c(=O)n(Cc4ccc(F)cc4)c3n2)CC1`: the AC50 is 1.58 µM [rising, full curve].

As to `O=C(NCCn1ccc2ccccc21)c1ccc(S(=O)(=O)N2CCOCC2)cc1`, the AC50 is 5.01 µM [rising, partial curve].

For the compound `CCOC(=O)c1c(NC(=O)CSc2nnc(-c3ccccc3C)n2C)sc(C(C)=O)c1C`, the half-maximal activity concentration (AC50) is 0.631 µM [falling, single point].

Regarding `CCOc1ccc(NC(=O)CN(C)S(=O)(=O)c2cccs2)cc1`, the AC50 was 0.316 µM [falling, full curve].

On to `CN(Cc1ccccc1)c1nc2c(c(=O)[nH]c(=O)n2C)n1Cc1ccccc1Cl`, for which the AC50 was 5.01 µM [rising, partial curve].

As to `COc1ccc(C(=O)CSc2n[nH]c(-c3ccco3)n2)cc1`, the concentration at half-maximal activity (AC50) was 3.16 µM [rising, partial curve].

Regarding `CCS(=O)(=O)N1CCC(C(=O)NCCCN2CCCCCC2)CC1`, the AC50 was 3.98 µM [falling, partial curve].

Take `Cc1nn(-c2ccccc2)c2c1/C(=N/O)CC(C)(C)C2`: the concentration at half-maximal activity (AC50) was 12.6 µM [rising, single point].

`O=c1c(-c2ccc(F)cc2)nc2cnc(Oc3ccccc3)nc2n1C[C@H]1CCCO1`: the AC50 is 12.6 µM [rising, partial curve].
